Data: the supplement of paper PMC8728848
The list shows a part of the results.

Tests used:
Test in all cases: glycan array binding signal (z-score within array); higher = stronger binding
Settings in all cases: glycan notation: IUPAC condensed, linker removed
[1] = target: Neu5Ac(a2-3)Gal(b1-4)GlcNAc
Method in brief: (§1)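 The binding signal is a Z-score computed within each array and averaged over linkers. Arrays of the same protein sequence at different concentrations or buffers were also averaged together. Data originate from 3228 arrays in the Consortium for Functional Glycomics database, kept only where the protein sequence was available.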

[2] = target: Neu5Ac(a2-3)Gal(b1-4)GlcNAc(b1-2)Man(a1-3)[GlcNAc(b1-2)Man(b1-4)GlcNAc(b1-2)Man(a1-6)]Man(b1-4)GlcNAc(b1-4)GlcNAc
Method in brief: as §1

[3] = target: Neu5Ac(a2-3)Gal(b1-4)GlcNAc(b1-2)Man(a1-3)[Neu5Ac(a2-6)Gal(b1-4)GlcNAc(b1-2)Man(a1-6)]Man(b1-4)GlcNAc(b1-4)GlcNAc
Method in brief: as §1

[4] = target: Neu5Ac(a2-3)Gal(b1-4)GlcNAc(b1-3)Gal(b1-3)GlcNAc
Method in brief: as §1

[5] = target: Neu5Ac(a2-3)Gal(b1-4)GlcNAc(b1-3)Gal(b1-4)GlcNAc
Method in brief: as §1

[6] = target: Neu5Ac(a2-3)Gal(b1-4)GlcNAc(b1-3)Gal(b1-4)GlcNAc(b1-3)Gal(b1-4)GlcNAc
Method in brief: as §1

[7] = target: Neu5Ac(a2-3)Gal(b1-4)GlcNAc(b1-3)Gal(b1-4)[Fuc(a1-3)]GlcNAc
Method in brief: as §1

[8] = target: Neu5Ac(a2-3)Gal(b1-4)GlcNAc(b1-3)GalNAc
Method in brief: as §1

[9] = target: Neu5Ac(a2-3)Gal(b1-4)GlcNAc(b1-6)[Gal(b1-3)]GalNAc
Method in brief: as §1

[10] = target: Neu5Ac(a2-3)Gal(b1-4)GlcNAc(b1-6)[Neu5Ac(a2-3)Gal(b1-3)]GalNAc
Method in brief: as §1

[11] = target: Neu5Ac(a2-3)Gal(b1-4)GlcNAc6S
Method in brief: as §1

[12] = target: Neu5Ac(a2-3)Gal(b1-4)[Fuc(a1-3)]GlcNAc
Method in brief: as §1

[13] = target: Neu5Ac(a2-3)Gal(b1-4)[Fuc(a1-3)]GlcNAc(b1-3)Gal
Method in brief: as §1

[14] = target: Neu5Ac(a2-3)Gal(b1-4)[Fuc(a1-3)]GlcNAc(b1-3)Gal(b1-4)GlcNAc
Method in brief: as §1

[15] = target: Neu5Ac(a2-3)Gal(b1-4)[Fuc(a1-3)]GlcNAc(b1-3)Gal(b1-4)[Fuc(a1-3)]GlcNAc(b1-3)Gal(b1-4)[Fuc(a1-3)]GlcNAc
Method in brief: as §1

[16] = target: Neu5Ac(a2-3)Gal(b1-4)[Fuc(a1-3)]GlcNAc(b1-3)GalNAc
Method in brief: as §1

[17] = target: Neu5Ac(a2-3)Gal(b1-4)[Fuc(a1-3)]GlcNAc(b1-6)[Gal(b1-3)]GalNAc
Method in brief: as §1

[18] = target: Neu5Ac(a2-3)Gal(b1-4)[Fuc(a1-3)]GlcNAc(b1-6)[Neu5Ac(a2-3)Gal(b1-3)]GalNAc
Method in brief: as §1

[19] = target: Neu5Ac(a2-3)Gal(b1-4)[Fuc(a1-3)]GlcNAc6S
Method in brief: as §1

[20] = target: Neu5Ac(a2-3)Gal6S(b1-4)GlcNAc
Method in brief: as §1

[21] = target: Neu5Ac(a2-3)Gal6S(b1-4)[Fuc(a1-3)]GlcNAc
Method in brief: as §1

[22] = target: Neu5Ac(a2-3)GalNAc
Method in brief: as §1

[23] = target: Neu5Ac(a2-3)GalNAc(b1-4)GlcNAc
Method in brief: as §1

[24] = target: Neu5Ac(a2-3)[GalNAc(b1-4)]Gal(b1-4)Glc
Method in brief: as §1

[25] = target: Neu5Ac(a2-3)[GalNAc(b1-4)]Gal(b1-4)GlcNAc
Method in brief: as §1

[26] = target: Neu5Ac(a2-3)[GalNAc(b1-4)]Gal(b1-4)GlcNAc(b1-3)GalNAc
Method in brief: as §1

[27] = target: Neu5Ac(a2-3)[Neu5Ac(a2-6)]GalNAc
Method in brief: as §1

[28] = target: Neu5Ac(a2-6)Gal
Method in brief: as §1

[29] = target: Neu5Ac(a2-6)Gal(b1-4)Glc
Method in brief: as §1

[30] = target: Neu5Ac(a2-6)Gal(b1-4)GlcNAc
Method in brief: as §1

[31] = target: Neu5Ac(a2-6)Gal(b1-4)GlcNAc(b1-2)Man(a1-3)Man(b1-4)GlcNAc(b1-4)GlcNAc
Method in brief: as §1

[32] = target: Neu5Ac(a2-6)Gal(b1-4)GlcNAc(b1-2)Man(a1-3)[Gal(b1-4)GlcNAc(b1-2)Man(a1-6)]Man(b1-4)GlcNAc(b1-4)GlcNAc
Method in brief: as §1

[33] = target: Neu5Ac(a2-6)Gal(b1-4)GlcNAc(b1-2)Man(a1-3)[GlcNAc(b1-2)Man(a1-6)]Man(b1-4)GlcNAc(b1-4)GlcNAc
Method in brief: as §1

[34] = target: Neu5Ac(a2-6)Gal(b1-4)GlcNAc(b1-2)Man(a1-3)[GlcNAc(b1-2)Man(b1-4)GlcNAc(b1-2)Man(a1-6)]Man(b1-4)GlcNAc(b1-4)GlcNAc
Method in brief: as §1

[35] = target: Neu5Ac(a2-6)Gal(b1-4)GlcNAc(b1-2)Man(a1-3)[Man(a1-6)]Man(b1-4)GlcNAc(b1-4)GlcNAc
Method in brief: as §1

B1: SRS2 (Toxoplasma gondii), O15695 (protein)
chain: MATRASLARQKTGAACLAVLTASPSVVAAKPWKRWVGVSVILASAFAVGVSAGPPYRYEPEKFTCRPKKGILSQWVSLLYQVQHNITFACEEATPVPTTLISEEHGLMVCAENMTPEECEANPAPLSAFLPGATKEWVTGDSVLTGLKISVPESQYPANAKSFRVGCRHNTKTGNTCMLTIHVEPRDPAVERQEARCSYTENSTLPKIFVTKDSNTMTLACGPHGAPMPESYTENYCSTPDTCDEKPFTSVIPGYLSKWFFGDPKSPLGARVRIPPEQIPSSPQINYFGCTGPTEGEGPKYNCTVPVPLGGGDPSEGSRPGGGSGGGKRGGGQGGGGSLAGFDFRQGSARHSLPSRMALSASALLAMTALAY
With B1 the “glycan array binding signal (z-score)” value [1] was -0.77, the “glycan array binding signal (z-score)” value [2] was -0.779 and the “glycan array binding signal (z-score)” value [3] was 0.714. The “glycan array binding signal (z-score)” value [4] was -0.277, the “glycan array binding signal (z-score)” value [5] was 0.883 and the “glycan array binding signal (z-score)” value [6] was -0.7. The “glycan array binding signal (z-score)” value [7] was -0.567, the “glycan array binding signal (z-score)” value [8] was 0.218 and the “glycan array binding signal (z-score)” value [9] was -0.432. For the same binder, the “glycan array binding signal (z-score)” value [10] was 0.927, the “glycan array binding signal (z-score)” value [11] was 0.45 and the “glycan array binding signal (z-score)” value [12] was 0.656. For the same binder, the “glycan array binding signal (z-score)” value [13] was -0.177, the “glycan array binding signal (z-score)” value [14] was 0.995 and the “glycan array binding signal (z-score)” value [15] was -0.426. The “glycan array binding signal (z-score)” value [16] was 1.72, the “glycan array binding signal (z-score)” value [17] was -0.677 and the “glycan array binding signal (z-score)” value [18] was -0.245. For the same binder, the “glycan array binding signal (z-score)” value [19] was -0.329, the “glycan array binding signal (z-score)” value [20] was 1.17 and the “glycan array binding signal (z-score)” value [21] was -0.527. The “glycan array binding signal (z-score)” value [22] was -0.302, the “glycan array binding signal (z-score)” value [23] was -0.567 and the “glycan array binding signal (z-score)” value [24] was 0.283. The “glycan array binding signal (z-score)” value [25] was -0.142, the “glycan array binding signal (z-score)” value [26] was -0.633 and the “glycan array binding signal (z-score)” value [27] was -0.779. For the same binder, the “glycan array binding signal (z-score)” value [28] was -0.764, the “glycan array binding signal (z-score)” value [29] was -0.173 and the “glycan array binding signal (z-score)” value [30] was -0.008. The “glycan array binding signal (z-score)” value [31] was -0.634, the “glycan array binding signal (z-score)” value [32] was 0.655 and the “glycan array binding signal (z-score)” value [33] was 1.19. The “glycan array binding signal (z-score)” value [34] was -0.782 and the “glycan array binding signal (z-score)” value [35] was -0.245.
